Reference: PubChem BioAssay AID1259405 (NCATS, 2018)

Screen: 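Silenced genes that increase secreted GFP made by CHO cells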 (primary screen)
Cells: Chinese hamster CHO-K1 ovary cells with stable secreted eGFP expression
Reagent: single siRNA against mouse genes, 0.8 pmol siRNA per well (2 µl of 400 nM stock)
Time to read-out: 3 days
Measurement: 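Per-well intracellular GFP measured by laser scanning cytometry, plus viability from ATP luminescence, each relative to plate median of non-targeting control wells, in %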
Reading the numbers: GFP, % of control: higher = more GFP per well, higher productivity; viability (ATP), % of control: higher = more viable cells (more ATP)
Call rule: 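Called active when intracellular GFP, relative to negative control, is at or above 120%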
This is one part, drawn at random, of about 50,000 reagents tested. About 4,000 of all reagents (8%) count as active. 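Mouse siRNA library applied to hamster cells; one well for each siRNA.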 The numbers tell different reagents against one gene apart.

gene,siRNA no.,"GFP, % of control","viability (ATP), % of control",Outcome
Slc45a3,1,45.4,49.1,inactive
Slc45a3,2,67.4,104,inactive
Slc45a3,3,65.7,84.8,inactive
Wdr35,1,30.5,39,inactive
Wdr35,2,52.7,61.3,inactive
Wdr35,3,65.6,73.7,inactive
Atp1b1,1,31.4,38.8,inactive
Atp1b1,2,69.2,65.1,inactive
Atp1b1,3,72,75.4,inactive
Krtap13-21,1,44,40.7,inactive
Krtap13-21,2,118,110,inactive
Krtap13-21,3,81.6,83.3,inactive
Agtpbp1,1,115,89.8,inactive
Agtpbp1,2,49.7,80.2,inactive
Agtpbp1,3,108,109,inactive

Part of the list above, reformatted.
gene | siRNA no. | GFP, % of control | viability (ATP), % of control | Outcome
Wdr35 | 1 | 30.5 | 39 | inactive
Wdr35 | 2 | 52.7 | 61.3 | inactive
Wdr35 | 3 | 65.6 | 73.7 | inactive
Atp1b1 | 1 | 31.4 | 38.8 | inactive
Atp1b1 | 2 | 69.2 | 65.1 | inactive

More results follow.
gene,siRNA no.,"GFP, % of control","viability (ATP), % of control",Outcome
Sdf4,1,108,106,inactive
Sdf4,2,114,63.7,inactive
B4galt1,1,115,111,inactive
B4galt1,2,75.1,108,inactive
B4galt1,3,93.9,107,inactive
4930544G11Rik,1,64.1,41.6,inactive
4930544G11Rik,2,40.7,33,inactive
4930544G11Rik,3,87.2,67.1,inactive
Polr2j,1,102,52.7,inactive
Polr2j,2,65.5,73.4,inactive
Jph4,1,68.7,76.2,inactive
Jph4,2,70.2,62.7,inactive
Jph4,3,117,55.2,inactive
8430429K09Rik,1,98.5,58.2,inactive
8430429K09Rik,2,97.6,89.8,inactive
8430429K09Rik,3,153,128,active
Katna1,1,73,72.6,inactive
Katna1,2,49.2,116,inactive
Zfp655,1,73.6,66.7,inactive
Zfp655,2,60.9,79.2,inactive
Zfp655,3,74.4,87.6,inactive
